The values that follow come from publication PMC3589417.

By UniProt entry, the sequences of proteins in these tests, tags left out.
UniProt P62258: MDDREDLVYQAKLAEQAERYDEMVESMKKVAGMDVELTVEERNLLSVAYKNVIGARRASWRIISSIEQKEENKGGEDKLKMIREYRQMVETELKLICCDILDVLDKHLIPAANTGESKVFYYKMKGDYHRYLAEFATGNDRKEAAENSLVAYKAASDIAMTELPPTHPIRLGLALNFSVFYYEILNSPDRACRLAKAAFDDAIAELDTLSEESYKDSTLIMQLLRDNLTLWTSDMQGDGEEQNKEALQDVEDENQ
UniProt Q13547: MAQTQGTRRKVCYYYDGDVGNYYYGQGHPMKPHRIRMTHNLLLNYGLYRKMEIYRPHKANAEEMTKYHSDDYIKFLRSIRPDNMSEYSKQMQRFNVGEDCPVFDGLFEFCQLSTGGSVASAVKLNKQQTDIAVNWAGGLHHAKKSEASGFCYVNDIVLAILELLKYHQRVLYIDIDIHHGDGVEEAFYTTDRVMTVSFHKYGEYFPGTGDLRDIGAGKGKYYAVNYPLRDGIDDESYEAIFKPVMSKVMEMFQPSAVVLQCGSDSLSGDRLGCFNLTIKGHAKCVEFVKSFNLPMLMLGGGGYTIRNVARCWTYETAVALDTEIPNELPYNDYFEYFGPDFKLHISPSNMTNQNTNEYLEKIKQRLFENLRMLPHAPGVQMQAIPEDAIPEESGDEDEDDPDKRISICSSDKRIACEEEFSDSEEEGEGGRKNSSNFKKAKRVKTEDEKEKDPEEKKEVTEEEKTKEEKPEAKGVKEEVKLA
UniProt Q9UBN7: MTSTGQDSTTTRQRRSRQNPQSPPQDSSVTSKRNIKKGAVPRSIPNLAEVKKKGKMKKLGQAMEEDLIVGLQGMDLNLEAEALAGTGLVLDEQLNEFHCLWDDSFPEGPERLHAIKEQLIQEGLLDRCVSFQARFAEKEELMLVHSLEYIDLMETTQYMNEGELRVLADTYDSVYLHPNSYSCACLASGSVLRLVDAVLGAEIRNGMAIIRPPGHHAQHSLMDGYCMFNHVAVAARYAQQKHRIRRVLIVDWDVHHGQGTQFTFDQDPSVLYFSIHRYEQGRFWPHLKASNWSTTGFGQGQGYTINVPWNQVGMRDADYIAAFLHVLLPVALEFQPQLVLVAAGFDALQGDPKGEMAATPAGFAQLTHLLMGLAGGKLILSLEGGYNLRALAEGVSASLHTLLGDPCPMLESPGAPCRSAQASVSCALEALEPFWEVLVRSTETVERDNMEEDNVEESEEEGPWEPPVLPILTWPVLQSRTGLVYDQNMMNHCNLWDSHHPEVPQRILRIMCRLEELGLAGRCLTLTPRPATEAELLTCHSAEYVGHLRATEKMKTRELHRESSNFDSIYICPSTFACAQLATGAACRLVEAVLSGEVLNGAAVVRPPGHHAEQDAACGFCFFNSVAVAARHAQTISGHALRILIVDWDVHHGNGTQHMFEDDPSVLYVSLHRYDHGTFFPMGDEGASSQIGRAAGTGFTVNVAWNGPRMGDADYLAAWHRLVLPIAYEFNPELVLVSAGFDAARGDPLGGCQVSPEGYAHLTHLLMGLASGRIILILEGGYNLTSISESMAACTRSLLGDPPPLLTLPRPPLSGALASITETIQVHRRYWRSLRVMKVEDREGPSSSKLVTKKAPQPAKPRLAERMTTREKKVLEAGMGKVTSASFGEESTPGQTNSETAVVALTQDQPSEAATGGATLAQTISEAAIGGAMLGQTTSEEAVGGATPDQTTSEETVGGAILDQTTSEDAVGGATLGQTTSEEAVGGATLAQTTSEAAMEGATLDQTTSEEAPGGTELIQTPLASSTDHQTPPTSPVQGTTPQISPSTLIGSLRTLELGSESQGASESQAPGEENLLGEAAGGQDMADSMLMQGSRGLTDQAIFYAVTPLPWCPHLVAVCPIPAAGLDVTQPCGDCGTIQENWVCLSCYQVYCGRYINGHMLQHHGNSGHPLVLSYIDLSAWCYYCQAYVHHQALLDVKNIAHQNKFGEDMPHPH
UniProt Q8TAQ2: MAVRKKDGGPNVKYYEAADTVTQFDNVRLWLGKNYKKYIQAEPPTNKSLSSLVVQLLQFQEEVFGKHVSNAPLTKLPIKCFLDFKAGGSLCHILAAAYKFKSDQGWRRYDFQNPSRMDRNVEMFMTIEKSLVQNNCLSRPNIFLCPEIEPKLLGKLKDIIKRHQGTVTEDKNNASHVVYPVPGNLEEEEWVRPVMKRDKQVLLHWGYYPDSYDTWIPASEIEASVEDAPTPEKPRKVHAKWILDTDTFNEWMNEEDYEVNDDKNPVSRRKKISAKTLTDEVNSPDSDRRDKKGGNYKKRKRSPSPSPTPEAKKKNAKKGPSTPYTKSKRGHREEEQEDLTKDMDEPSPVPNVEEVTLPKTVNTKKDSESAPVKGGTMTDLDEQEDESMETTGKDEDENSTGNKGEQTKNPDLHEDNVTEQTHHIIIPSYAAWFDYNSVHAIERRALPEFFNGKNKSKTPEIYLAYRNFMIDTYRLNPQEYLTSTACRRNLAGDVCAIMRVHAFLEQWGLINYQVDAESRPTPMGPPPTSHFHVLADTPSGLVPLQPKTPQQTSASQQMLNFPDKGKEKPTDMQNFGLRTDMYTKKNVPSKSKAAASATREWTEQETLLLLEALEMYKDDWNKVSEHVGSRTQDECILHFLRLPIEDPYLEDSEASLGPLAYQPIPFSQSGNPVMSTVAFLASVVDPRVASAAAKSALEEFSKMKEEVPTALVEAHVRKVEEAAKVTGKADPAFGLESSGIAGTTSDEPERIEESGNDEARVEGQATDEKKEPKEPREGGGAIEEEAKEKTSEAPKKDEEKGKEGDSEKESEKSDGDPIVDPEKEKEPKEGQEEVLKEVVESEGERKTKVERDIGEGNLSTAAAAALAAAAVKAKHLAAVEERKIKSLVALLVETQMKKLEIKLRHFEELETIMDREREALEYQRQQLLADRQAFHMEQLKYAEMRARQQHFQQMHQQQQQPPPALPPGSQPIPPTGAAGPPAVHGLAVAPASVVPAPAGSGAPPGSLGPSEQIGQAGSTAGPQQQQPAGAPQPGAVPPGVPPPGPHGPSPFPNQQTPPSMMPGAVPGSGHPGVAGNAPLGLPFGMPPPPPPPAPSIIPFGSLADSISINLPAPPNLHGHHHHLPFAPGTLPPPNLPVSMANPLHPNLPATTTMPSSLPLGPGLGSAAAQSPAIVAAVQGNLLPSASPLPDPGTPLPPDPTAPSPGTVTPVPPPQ
UniProt Q16531: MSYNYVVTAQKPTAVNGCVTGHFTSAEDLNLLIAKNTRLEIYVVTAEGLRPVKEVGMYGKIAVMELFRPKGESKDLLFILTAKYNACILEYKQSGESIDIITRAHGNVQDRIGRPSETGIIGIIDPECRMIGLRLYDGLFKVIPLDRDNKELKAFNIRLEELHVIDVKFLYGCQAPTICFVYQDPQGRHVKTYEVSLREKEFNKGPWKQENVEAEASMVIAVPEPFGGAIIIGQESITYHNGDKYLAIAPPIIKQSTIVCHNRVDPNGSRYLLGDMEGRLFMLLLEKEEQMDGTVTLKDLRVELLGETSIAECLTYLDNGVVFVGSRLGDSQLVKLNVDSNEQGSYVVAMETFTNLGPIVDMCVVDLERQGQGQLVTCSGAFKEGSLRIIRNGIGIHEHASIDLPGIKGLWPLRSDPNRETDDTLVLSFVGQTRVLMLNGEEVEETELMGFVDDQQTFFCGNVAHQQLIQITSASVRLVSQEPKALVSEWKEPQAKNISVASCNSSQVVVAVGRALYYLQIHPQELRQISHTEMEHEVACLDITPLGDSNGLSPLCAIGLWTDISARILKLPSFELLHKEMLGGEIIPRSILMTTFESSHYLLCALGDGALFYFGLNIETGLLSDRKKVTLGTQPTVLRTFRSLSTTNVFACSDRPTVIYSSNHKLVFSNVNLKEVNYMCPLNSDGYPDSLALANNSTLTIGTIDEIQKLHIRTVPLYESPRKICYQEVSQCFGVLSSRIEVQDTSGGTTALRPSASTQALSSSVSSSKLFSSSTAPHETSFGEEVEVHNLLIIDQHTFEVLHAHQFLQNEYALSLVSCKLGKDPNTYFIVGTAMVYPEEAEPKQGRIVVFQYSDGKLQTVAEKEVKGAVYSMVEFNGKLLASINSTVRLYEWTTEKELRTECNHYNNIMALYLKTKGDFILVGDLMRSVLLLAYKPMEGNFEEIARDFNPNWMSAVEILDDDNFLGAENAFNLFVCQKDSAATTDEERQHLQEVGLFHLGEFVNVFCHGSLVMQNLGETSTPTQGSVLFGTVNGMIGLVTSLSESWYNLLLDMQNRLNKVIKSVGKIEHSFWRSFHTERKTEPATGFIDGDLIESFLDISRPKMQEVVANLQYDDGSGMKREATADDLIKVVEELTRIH
UniProt Q09028: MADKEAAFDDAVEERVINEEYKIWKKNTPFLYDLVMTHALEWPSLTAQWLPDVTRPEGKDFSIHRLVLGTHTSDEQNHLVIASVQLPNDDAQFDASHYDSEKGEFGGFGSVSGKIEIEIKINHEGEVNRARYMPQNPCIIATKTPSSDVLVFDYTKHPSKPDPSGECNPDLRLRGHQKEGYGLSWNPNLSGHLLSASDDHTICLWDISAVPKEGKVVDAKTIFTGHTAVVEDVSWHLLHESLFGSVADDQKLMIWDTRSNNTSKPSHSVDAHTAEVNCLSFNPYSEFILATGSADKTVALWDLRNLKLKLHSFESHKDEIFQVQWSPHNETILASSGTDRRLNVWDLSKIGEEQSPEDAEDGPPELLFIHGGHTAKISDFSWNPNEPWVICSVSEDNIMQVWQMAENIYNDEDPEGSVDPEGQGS

Results are given in words; binding and its absence hold for the method and conditions named. In cells and extracts the contact can be indirect. A yes stands for co-enrichment or nearness to the bait. Other partners may have been found.

B1: TAK1 (MAP3K7) (protein, UniProt O43318 1-606)
chain: MSTASAASSSSSSSAGEMIEAPSQVLNFEEIDYKEIEVEEVVGRGAFGVVCKAKWRAKDVAIKQIESESERKAFIVELRQLSRVNHPNIVKLYGACLNPVCLVMEYAEGGSLYNVLHGAEPLPYYTAAHAMSWCLQCSQGVAYLHSMQPKALIHRDLKPPNLLLVAGGTVLKICDFGTACDIQTHMTNNKGSAAWMAPEVFEGSNYSEKCDVFSWGIILWEVITRRKPFDEIGGPAFRIMWAVHNGTRPPLIKNLPKPIESLMTRCWSKDPSQRPSMEEIVKIMTHLMRYFPGADEPLQYPCQYSDEGQSNSATSTGSFMDIASTNTSNKSDTNMEQVPATNDTIKRLESKLLKNQAKQQSESGRLSLGASRGSSVESLPPTSEGKRMSADMSEIEARIAATTAYSKPKRGHRKTASFGNILDVPEIVISGNGQPRRRSIQDLTVTGTEPGQVSSRSSSPSVRMITTSGPTSEKPTRSHPWTPDDSTDTNGSDNSIPMAYLTLDHQLQPLAPCPNSKESMAVFEQHCKMAQEYMKVQTEIALLLQRKQELVAELDQDEKDQQNTSRLVQEHKKLLDENKSLSTYYQQCKKQLEVIRSQQQKRQGTS
B2: TAB1 (MAP3K7IP1) (protein, UniProt Q15750 1-504)
chain: MAAQRRSLLQSEQQPSWTDDLPLCHLSGVGSASNRSYSADGKGTESHPPEDSWLKFRSENNCFLYGVFNGYDGNRVTNFVAQRLSAELLLGQLNAEHAEADVRRVLLQAFDVVERSFLESIDDALAEKASLQSQLPEGVPQHQLPPQYQKILERLKTLEREISGGAMAVVAVLLNNKLYVANVGTNRALLCKSTVDGLQVTQLNVDHTTENEDELFRLSQLGLDAGKIKQVGIICGQESTRRIGDYKVKYGYTDIDLLSAAKSKPIIAEPEIHGAQPLDGVTGFLVLMSEGLYKALEAAHGPGQANQEIAAMIDTEFAKQTSLDAVAQAVVDRVKRIHSDTFASGGERARFCPRHEDMTLLVRNFGYPLGEMSQPTPSPAPAAGGRVYPVSVPYSSAQSTSKTSVTLSLVMPSQGQMVNGAHSASTLDEATPTLTNQSPTLTLQSTNTHTQSSSSSSDGGLFRSRPAHSLPPGEDGRVEPYVDFAEFYRLWSVDHGEQSVVTAP
B3: MATR3 (Matrin 3) (protein, UniProt P43243 1-847)
chain: MSKSFQQSSLSRDSQGHGRDLSAAGIGLLAAATQSLSMPASLGRMNQGTARLASLMNLGMSSSLNQQGAHSALSSASTSSHNLQSIFNIGSRGPLPLSSQHRGDADQASNILASFGLSARDLDELSRYPEDKITPENLPQILLQLKRRRTEEGPTLSYGRDGRSATREPPYRVPRDDWEEKRHFRRDSFDDRGPSLNPVLDYDHGSRSQESGYYDRMDYEDDRLRDGERCRDDSFFGETSHNYHKFDSEYERMGRGPGPLQERSLFEKKRGAPPSSNIEDFHGLLPKGYPHLCSICDLPVHSNKEWSQHINGASHSRRCQLLLEIYPEWNPDNDTGHTMGDPFMLQQSTNPAPGILGPPPPSFHLGGPAVGPRGNLGAGNGNLQGPRHMQKGRVETSRVVHIMDFQRGKNLRYQLLQLVEPFGVISNHLILNKINEAFIEMATTEDAQAAVDYYTTTPALVFGKPVRVHLSQKYKRIKKPEGKPDQKFDQKQELGRVIHLSNLPHSGYSDSAVLKLAEPYGKIKNYILMRMKSQAFIEMETREDAMAMVDHCLKKALWFQGRCVKVDLSEKYKKLVLRIPNRGIDLLKKDKSRKRSYSPDGKESPSDKKSKTDGSQKTESSTEGKEQEEKSGEDGEKDTKDDQTEQEPNMLLESEDELLVDEEEAAALLESGSSVGDETDLANLGDVASDGKKEPSDKAVKKDGSASAAAKKKLKKVDKIEELDQENEAALENGIKNEENTEPGAESSENADDPNKDTSENADGQSDENKDDYTIPDEYRIGPYQPNVPVGIDYVIPKTGFYCKLCSLFYTNEEVAKNTHCSSLPHYQKLKKFLNKLAEERRQKKET
B4: PA2G4 (protein, UniProt Q9UQ80 1-394)
chain: MSGEDEQQEQTIAEDLVVTKYKMGGDIANRVLRSLVEASSSGVSVLSLCEKGDAMIMEETGKIFKKEKEMKKGIAFPTSISVNNCVCHFSPLKSDQDYILKEGDLVKIDLGVHVDGFIANVAHTFVVDVAQGTQVTGRKADVIKAAHLCAEAALRLVKPGNQNTQVTEAWNKVAHSFNCTPIEGMLSHQLKQHVIDGEKTIIQNPTDQQKKDHEKAEFEVHEVYAVDVLVSSGEGKAKDAGQRTTIYKRDPSKQYGLKMKTSRAFFSEVERRFDAMPFTLRAFEDEKKARMGVVECAKHELLQPFNVLYEKEGEFVAQFKFTVLLMPNGPMRITSGPFEPDLYKSEMEVQDAELKALLQSSASRKTQKKKKKKASKTAENATSGETLEENEAGD
B5: TAB3 (MAP3K7IP3) (protein, UniProt Q8N5C8 1-712)
chain: MAQSSPQLDIQVLHDLRQRFPEIPEGVVSQCMLQNNNNLEACCRALSQESSKYLYMEYHSPDDNRMNRNRLLHINLGIHSPSSYHPGDGAQLNGGRTLVHSSSDGHIDPQHAAGKQLICLVQEPHSAPAVVAATPNYNPFFMNEQNRSAATPPSQPPQQPSSMQTGMNPSAMQGPSPPPPPPSYMHIPRYSTNPITVTVSQNLPSGQTVPRALQILPQIPSNLYGSPGSIYIRQTSQSSSGRQTPQSTPWQSSPQGPVPHYSQRPLPVYPHQQNYQPSQYSPKQQQIPQSAYHSPPPSQCPSPFSSPQHQVQPSQLGHIFMPPSPSTTPPHPYQQGPPSYQKQGSHSVAYLPYTASSLSKGSMKKIEITVEPSQRPGTAINRSPSPISNQPSPRNQHSLYTATTPPSSSPSRGISSQPKPPFSVNPVYITYTQPTGPSCTPSPSPRVIPNPTTVFKITVGRATTENLLNLVDQEERSAAPEPIQPISVIPGSGGEKGSHKYQRSSSSGSDDYAYTQALLLHQRARMERLAKQLKLEKEELERLKSEVNGMEHDLMQRRLRRVSCTTAIPTPEEMTRLRSMNRQLQINVDCTLKEVDLLQSRGNFDPKAMNNFYDNIEPGPVVPPKPSKKDSSDPCTIERKARRISVTSKVQADIHDTQAAAADEHRTGSTQSPRTQPRDEDYEGAPWNCDSCTFLNHPALNRCEQCEMPRYT
B6: NONO (protein, UniProt Q15233 1-471)
chain: MQSNKTFNLEKQNHTPRKHHQHHHQQQHHQQQQQQPPPPPIPANGQQASSQNEGLTIDLKNFRKPGEKTFTQRSRLFVGNLPPDITEEEMRKLFEKYGKAGEVFIHKDKGFGFIRLETRTLAEIAKVELDNMPLRGKQLRVRFACHSASLTVRNLPQYVSNELLEEAFSVFGQVERAVVIVDDRGRPSGKGIVEFSGKPAARKALDRCSEGSFLLTTFPRPVTVEPMDQLDDEEGLPEKLVIKNQQFHKEREQPPRFAQPGSFEYEYAMRWKALIEMEKQQQDQVDRNIKEAREKLEMEMEAARHEHQVMLMRQDLMRRQEELRRMEELHNQEVQKRKQLELRQEEERRRREEEMRRQQEEMMRRQQEGFKGTFPDAREQEIRMGQMAMGGAMGINNRGAMPPAPVPAGTPAPPGPATMMPDGTLGLTPPTTERFGQAATMEGIGAIGGTPPAFNRAAPGAEFAPNKRRRY

For this assay, the target named is FLAG-tagged human 14-3-3ε (human) (UniProt P62258). Put plainly: affinity purification with mass spectrometry; anti-FLAG beads on lysates of HCC cells stably expressing FLAG-14-3-3ε, BLM 20 mU/ml 2 h (light) against untreated (Leu-d3, heavy); 4°C 4 h, washed with TBS, eluted with FLAG peptide, mixed 1:1, SDS-PAGE, nano-LC-MS/MS.
HDAC1 (from UniProt Q13547 1-482): the binding result is given as “binds”.
The result for HDAC6 (from UniProt Q9UBN7 1-1215) reads “binds”; that for SMARCC2 (from UniProt Q8TAQ2 1-1214), “binds”; that for “Damage-specific DNA binding protein 1 (from UniProt Q16531 1-1140)”, “binds”.
In the case of RBBP4 (from UniProt Q09028 1-425), the binding entry is “binds”.
The result for B1 reads “binds”; that for B2, “binds”; that for B3, “binds”.
With B4, the binding result was “binds”.
Take B5: the binding entry is given as “binds”.
As to B6, the binding entry is recorded as “binds”.
